{"source": "PubChem BioAssay AID686937 – Drosophila RNAi Screening Center | 2013", "purpose": "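Knock-downs that reduce output of a secreted reporter enzyme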 (primary screen)", "system": "Drosophila S2 cells expressing secreted horseradish peroxidase", "reagents": "long dsRNA against Drosophila genes", "duration": "about 5.5 days (5 days dsRNA, then 12 h reporter induction)", "treatment": "reporter expression induced after 5 days of dsRNA, read 12 h later; inducer not stated", "read-out": "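Chemiluminescent measurement of peroxidase in the medium 12 h after reporter induction, following 5 days of dsRNA, given as a z-score per plate; higher means more secretion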", "reading the numbers": "z-score: higher = more reporter secreted into medium", "note": "The screen tested about 23,000 reagents; shown is an unselected part of those that have a named target and a result. 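Reduced-secretion tags in replicate 1 do not always agree with the z-scores; no criterion for assigning the tags was given.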 The numbers tell different reagents against one gene apart. Not all columns of the deposit are shown. Not stated in the record: the amount of reagent."}
{"target gene":"gammaSnap2 (GeneID 41239)","reagent no.":1,"z-score, replicate 1":0.34}
{"target gene":"CG14314 (GeneID 42179)","reagent no.":1,"z-score, replicate 1":0.28}
{"target gene":"sll (GeneID 42115)","reagent no.":1,"z-score, replicate 1":0.21}
{"target gene":"ens (GeneID 38491)","reagent no.":1,"z-score, replicate 1":0.47}
{"target gene":"CG6569 (GeneID 42573)","reagent no.":1,"z-score, replicate 1":0.13}
{"target gene":"Akr1B (GeneID 39304)","reagent no.":1,"z-score, replicate 1":0.22}
{"target gene":"CG16741 (GeneID 59232)","reagent no.":1,"z-score, replicate 1":0.48}
{"target gene":"CG6726 (GeneID 42728)","reagent no.":1,"z-score, replicate 1":0.29}
{"target gene":"gfzf (GeneID 40858)","reagent no.":1,"z-score, replicate 1":-0.18}
{"target gene":"gfzf (GeneID 40858)","reagent no.":2,"z-score, replicate 1":0.96}
{"target gene":"eIF3g1 (GeneID 31243)","reagent no.":1,"z-score, replicate 1":-2.88,"phenotype, replicate 1":"reduced secretion"}
{"target gene":"Ect3 (GeneID 41457)","reagent no.":1,"z-score, replicate 1":0.03}
{"target gene":"CG42824 (GeneID 10178873)","reagent no.":1,"z-score, replicate 1":0.08}
{"target gene":"Dyrk2 (GeneID 34831)","reagent no.":1,"z-score, replicate 1":0.15}
{"target gene":"CG7565 (GeneID 38893)","reagent no.":1,"z-score, replicate 1":0.36}
{"target gene":"CG3732 (GeneID 37588)","reagent no.":1,"z-score, replicate 1":0.05}
{"target gene":"Lac (GeneID 36363)","reagent no.":1,"z-score, replicate 1":0.54}
{"target gene":"CG6168 (GeneID 39273)","reagent no.":1,"z-score, replicate 1":0.53}
{"target gene":"ogre (GeneID 45382)","reagent no.":1,"z-score, replicate 1":0.29}

Continued (2 carried over from the part before).
{"target gene":"CG6168 (GeneID 39273)","reagent no.":1,"z-score, replicate 1":0.53}
{"target gene":"ogre (GeneID 45382)","reagent no.":1,"z-score, replicate 1":0.29}
{"target gene":"CG7988 (GeneID 42180)","reagent no.":1,"z-score, replicate 1":0.2}
{"target gene":"CG34238 (GeneID 5740238)","reagent no.":1,"z-score, replicate 1":0.2}
{"target gene":"Cpr65Ea (GeneID 38773)","reagent no.":1,"z-score, replicate 1":0.35}
{"target gene":"Mkrn1 (GeneID 44131)","reagent no.":1,"z-score, replicate 1":0.02}
{"target gene":"Abl (GeneID 45821)","reagent no.":1,"z-score, replicate 1":0.32}
{"target gene":"CG31454 (GeneID 318744)","reagent no.":1,"z-score, replicate 1":0.14}
{"target gene":"CG31454 (GeneID 318744)","reagent no.":2,"z-score, replicate 1":-0.7}
{"target gene":"kek2 (GeneID 34582)","reagent no.":1,"z-score, replicate 1":0.28}
{"target gene":"CG10481 (GeneID 35273)","reagent no.":1,"z-score, replicate 1":0.22}
{"target gene":"CG11060 (GeneID 35641)","reagent no.":1,"z-score, replicate 1":0.03}
{"target gene":"CG3739 (GeneID 42320)","reagent no.":1,"z-score, replicate 1":0.37}
{"target gene":"Gr57a (GeneID 37347)","reagent no.":1,"z-score, replicate 1":0.54}
{"target gene":"CG9522 (GeneID 32413)","reagent no.":1,"z-score, replicate 1":0.31}
{"target gene":"Ugt303A1 (GeneID 53503)","reagent no.":1,"z-score, replicate 1":0.43}
{"target gene":"Spt (GeneID 35889)","reagent no.":1,"z-score, replicate 1":0.41}
{"target gene":"CG7252 (GeneID 39353)","reagent no.":1,"z-score, replicate 1":0.26}
{"target gene":"CG7252 (GeneID 39353)","reagent no.":2,"z-score, replicate 1":-0.78,"phenotype, replicate 1":"reduced secretion"}
{"target gene":"CG33325 (GeneID 2768664)","reagent no.":1,"z-score, replicate 1":0.04}
{"target gene":"CG12688 (retired record) (GeneID 31378)","reagent no.":1,"z-score, replicate 1":0.28}
{"target gene":"CG12688 (retired record) (GeneID 31378)","reagent no.":2,"z-score, replicate 1":-0.54}
{"target gene":"CG34174 (GeneID 5740699)","reagent no.":1,"z-score, replicate 1":0.25}
